± gives the standard deviation. This is one part of the list. Many entries were measured with a wide error.
Each sequence was assayed on EfPiwi piRISC loaded with L1MC piRNA (26 nt) (assay: pre-steady-state target cleavage rate (min^-1); guide: L1MC piRNA 5'p-UAACUAAAUACUAUGCAAGCUGUAGG; MIWI and MILI are mouse PIWI proteins and EfPiwi is from a freshwater sponge; tags in brackets are library labels; higher = faster piRNA-guided slicing of the target). Details: auxiliary factor: 500 nM Ephydatia muelleri Gtsf1.
How it was run: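 A transcribed, DNA-blocked target RNA library […] was incubated at 33 °C for 0–8 or 0–960 min with 1 nM active affinity-purified piRISC carrying one synthetic guide, in HEPES–potassium acetate buffer with or without 500 nM GTSF1 partner protein. Uncleaved targets were then sequenced and normalised to depth and to weakly complementary targets. Data from three trials were pooled, with k3 capped at 0.0001 min^-1, and a burst-and-steady-state fit yielded the pre-steady-state cleavage rate.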

Row | Sequence | pre-steady-state target cleavage rate
1 | UCCUGGAUGAGCAUGCUUAGUAUUUAGUUA | 0.00171 ± 0.0033
2 | UCCUCCUUCACCUUGCAUAGUAUUUAGUUA | 0.0605 ± 0.021
3 | UCCUCCUACAGCUUGCAUACUAUAUAGUUA | 0.00278 ± 0.0029
4 | UCCUGGAUGUGCUUGCAUAGUACUUAGUUA | 0.00522 ± 0.0031
5 | UCCUGCUACACCUUGCAUAGUAAUUAGUUA | 0.00647 ± 0.0028
6 | UCCUGGAUCAGCUAGCAUAGAAUUUAGUUA | 0.00118 ± 0.0027
7 | UCCUCCUACAGUUUGCAUAGUAUUUAGUUA | 0.0845 ± 0.021
8 | UCCUGGAUGUGAUUGCAUAGUAUUUAGUUA | 0.00623 ± 0.0031
9 | UCCUGCUACUGCUUGCAUAGUAUUUAGUUA | 0.00883 ± 0.003
10 | UCCUGGAUGUCGAAGCAUUGUAUUUAGUAA | 0.000589 ± 0.011
11 | UCCUCCUACAGCAUGCAUUGUAUUUAGUUA | 0.0134 ± 0.0043
12 | UCCUGGUAGUGCUUGCAUAGUAUUUAGUAA | 0.00326 ± 0.0024
13 | UCCUCCUACAGCUUGCACAGUAUUUAGUUA | 0.0475 ± 0.013
14 | UCCUGGAUGUCGAUCCUUAGUAUUUAGUUA | 0.000608 ± 0.0073
15 | UCCUGGUUCAGCUUGCAUAGUAUUAAGUUA | 0.00579 ± 0.0021
16 | UCCUCGUACAGCAUGCAUAGUAUUUAGUUA | 0.0515 ± 0.013

Another view of some results above.
Row,Sequence,pre-steady-state target cleavage rate
1,UCCUGGAUGAGCAUGCUUAGUAUUUAGUUA,0.00171 ± 0.0033
2,UCCUCCUUCACCUUGCAUAGUAUUUAGUUA,0.0605 ± 0.021
3,UCCUCCUACAGCUUGCAUACUAUAUAGUUA,0.00278 ± 0.0029

(cont.)

Row | Sequence | pre-steady-state target cleavage rate
17 | UCCUGGUACAGCUUGCAUAGUAUUUAGUUU [g2:g24:cont:t1U] | 0.117 ± 0.038
18 | UCCUGCUACAGCUUAGCAUAGUAUUUAGUUA | 0.0477 ± 0.015
19 | UCCUGGAUGUCGUUGCAAAGAAUUUAGUUA | 0.00066 ± 0.0098
20 | UCCUCCUACAGCUUGCAUAGUAUUUAGCUUA | 0.00683 ± 0.0027
21 | UCCUGGAUGUGCUUGGAUAGUAUUUAGUUA | 0.0042 ± 0.0044
22 | UCCUCCUUCAGCUUGCAUAGUAUUUAGUAA | 0.012 ± 0.005
23 | UCCUGCUAGAGCUUGCAUAGUAUUUACUUA | 0.000736 ± 0.0053
24 | UCCUGGAUGUCGAACGUUAGUAAAAAGUUA | < 0.0001
25 | UCCUCCUACAGCUUGCAUAGUAUUUAGAUUA | 0.0103 ± 0.0044
26 | UCCUGGAACCAGCUUGCAUAGUAUUUAGUUA | 0.0336 ± 0.0098
27 | UCCUGCUUCAGCUUGGAUAGUAUUUAGUUA | 0.0331 ± 0.007
28 | UCCUGGAUGUCCUUGCAUAGUAUUUGGUUA | 0.00366 ± 0.0027
29 | UCCUGGAACAGCUUGCAAAGUAUUUAGUUA | 0.0333 ± 0.0089
30 | UCCUGCUACGGCUUGCAUAGUAUUUAGUUA | 0.00972 ± 0.0027
31 | UCCUGGAUCAGCUUGCAUAGUUAUUAGUUA | 0.0017 ± 0.0031
32 | UCCUCCUACUGCUUGCAUAGUAUUUUGUUA | 0.0111 ± 0.0044

Same assay, conditions: auxiliary factor: none (no Gtsf1)

Row | Sequence | pre-steady-state target cleavage rate
33 | UCCUGGAUCUGGUUGCAUAGUAUUUAGUUA | 0.000933 ± 0.014
34 | UCCUGGUACAGCUUGCAUAGUAUUUAGUGA | 0.00109 ± 0.0083
35 | UCCUGGAUGUCGAUGCAUAGAUAAAUCAAA [g11:g17:cont:t1A] | 0.000572 ± 0.011
36 | UCCUGGAUGUCGAACGUUAGUCUUUAGUUA | 0.000117 ± 0.039
37 | UCCUGGAUGUGCUUGCAUAGUAUUUAGCUUA | 0.000445 ± 0.021
38 | UCCUGGAUGUCGAACGUAUCUAAUUUAGUUA | 0.000177 ± 0.027
39 | UCCUGGAUGUCGAACGUUAAGUAUUUAGUUA | 0.000176 ± 0.039
40 | UCCUGGAACAGUUUGCAUAGUAUUUAGUUA | 0.00323 ± 0.0046
